Experiment [1] has as its target CLIMP-63 C100A, exogenously expressed with an N-terminal HA or RFP tag (UniProt Q07065). Briefly: co-IP.
Experiment [2] addresses CLIMP-63 WT, exogenously expressed with an N-terminal HA or RFP tag (UniProt Q07065). Nature of the experiment: co-IP.
The target in experiment [3] is cytoskeleton-linking membrane protein 63 (CLIMP-63), endogenous (human (endogenous in HeLa)) (UniProt Q07065). Nature of the experiment: native gel or EMSA. A general note: A gel shift assay detects complexes by their altered migration in electrophoresis.
The target is the same in experiment [4]. Briefly: proximity ligation.
For experiment [5] the target is unchanged. Nature of the experiment: co-IP.

Amino acid sequences for entries named in this document (tags omitted). A change or cut given only in a name is not applied to a line headed by its entry.
UniProt Q07065, whole entry: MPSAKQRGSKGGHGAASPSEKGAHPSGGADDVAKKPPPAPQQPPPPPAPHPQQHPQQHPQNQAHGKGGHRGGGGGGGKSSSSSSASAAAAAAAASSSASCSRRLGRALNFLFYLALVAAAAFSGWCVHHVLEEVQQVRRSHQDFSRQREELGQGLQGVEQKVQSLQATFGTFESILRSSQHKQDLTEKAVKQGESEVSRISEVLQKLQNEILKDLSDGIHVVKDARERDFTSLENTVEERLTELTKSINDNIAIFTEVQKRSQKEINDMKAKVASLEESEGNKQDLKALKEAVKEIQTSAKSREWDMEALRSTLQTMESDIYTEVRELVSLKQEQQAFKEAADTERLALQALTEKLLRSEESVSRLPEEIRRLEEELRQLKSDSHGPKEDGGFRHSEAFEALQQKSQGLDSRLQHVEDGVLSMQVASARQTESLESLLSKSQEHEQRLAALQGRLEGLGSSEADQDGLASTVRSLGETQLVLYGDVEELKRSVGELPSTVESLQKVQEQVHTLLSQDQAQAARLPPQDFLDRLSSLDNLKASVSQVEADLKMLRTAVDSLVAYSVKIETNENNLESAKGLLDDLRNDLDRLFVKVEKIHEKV
UniProt Q9UIJ5, whole entry: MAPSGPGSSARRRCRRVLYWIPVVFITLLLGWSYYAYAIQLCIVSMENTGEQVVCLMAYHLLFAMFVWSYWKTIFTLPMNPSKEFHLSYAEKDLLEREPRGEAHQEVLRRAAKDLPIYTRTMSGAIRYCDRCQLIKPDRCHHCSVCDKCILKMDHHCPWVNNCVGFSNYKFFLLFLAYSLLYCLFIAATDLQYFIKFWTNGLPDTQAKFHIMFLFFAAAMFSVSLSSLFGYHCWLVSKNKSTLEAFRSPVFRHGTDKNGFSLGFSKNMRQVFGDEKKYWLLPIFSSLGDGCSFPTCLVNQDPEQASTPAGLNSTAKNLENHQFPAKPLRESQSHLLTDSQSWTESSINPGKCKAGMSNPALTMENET

Results are given in words; binding and its absence hold for the method and conditions named. For some of these results: Binding seen in cells or lysates may run through a third protein. Some binding calls cover weakened binding; strength is not graded here.

These results are taken from paper doi:10.1101/431106.

“CLIMP-63 C100A, exogenously expressed with an N-terminal HA or RFP tag (from UniProt Q07065 1-602)”: the binding result in experiment [1] is “binds”. As to “CLIMP-63 WT, exogenously expressed with an N-terminal HA or RFP tag (from UniProt Q07065 1-602)”, the binding entry in experiment [2] is reported as “binds”. Consider “cytoskeleton-linking membrane protein 63 (CLIMP-63), endogenous (from UniProt Q07065 1-602)”, for which, in experiment [3], the binding entry is “binds”. As for “palmitoyltransferase ZDHHC2 (from UniProt Q9UIJ5 1-367) (enzyme)”, the binding result in experiment [4] and in experiment [5] was “binds” each time.

B1: palmitoylacyltransferase ZDHHC6 (enzyme, UniProt Q9H6R6 1-413)
chain: MGTFCSVIKFENLQELKRLCHWGPIIALGVIAICSTMAMIDSVLWYWPLHTTGGSVNFIMLINWTVMILYNYFNAMFVGPGFVPLGWKPEISQDTMYLQYCKVCQAYKAPRSHHCRKCNRCVMKMDHHCPWINNCCGYQNHASFTLFLLLAPLGCIHAAFIFVMTMYTQLYHRLSFGWNTVKIDMSAARRDPLPIVPFGLAAFATTLFALGLALGTTIAVGMLFFIQMKIILRNKTSIESWIEEKAKDRIQYYQLDEVFVFPYDMGSRWRNFKQVFTWSGVPEGDGLEWPVREGCHQYSLTIEQLKQKADKRVRSVRYKVIEDYSGACCPLNKGIKTFFTSPCTEEPRIQLQKGEFILATRGLRYWLYGDKILDDSFIEGVSRIRGWFPRKCVEKCPCDAETDQAPEGEKKNR
Consider B1, for which the binding result in experiment [4] and in experiment [5] was “binds” in each case.
